Measured values as given in article doi:10.1101/2025.10.20.683412.
Results are given in words; binding and its absence hold for the method and conditions named. In cells and extracts the contact can be indirect. Some results given as binding are weak or reduced against the parent protein; the word gives no strength. Sequences can lack the tags named with a protein. One block for each binder: values may come before it.

Sequences of proteins named here, by UniProt entry; tags and fusion partners are left off. A change or cut given only in a name is not applied to a line headed by its entry.
UniProt Q86WV6, whole entry: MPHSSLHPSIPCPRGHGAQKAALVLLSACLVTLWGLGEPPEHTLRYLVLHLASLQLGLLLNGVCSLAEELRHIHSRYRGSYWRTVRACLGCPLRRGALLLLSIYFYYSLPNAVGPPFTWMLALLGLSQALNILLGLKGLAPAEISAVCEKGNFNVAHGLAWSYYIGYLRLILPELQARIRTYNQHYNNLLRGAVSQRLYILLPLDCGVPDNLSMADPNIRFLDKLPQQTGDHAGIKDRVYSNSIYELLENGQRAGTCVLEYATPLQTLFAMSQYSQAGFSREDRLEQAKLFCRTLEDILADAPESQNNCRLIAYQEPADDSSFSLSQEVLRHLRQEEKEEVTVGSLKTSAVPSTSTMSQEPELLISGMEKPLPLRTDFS

Key:
Test in all cases: co-IP
[1] = molecular target: HA-tagged wild-type STING (human), Q86WV6; settings: remark: other sources report otherwise
[2] = molecular target: T1, Myc-tagged IRF3 2SA mutant (S385A/S386A) (human) (UniProt Q14653)
T1 sequence: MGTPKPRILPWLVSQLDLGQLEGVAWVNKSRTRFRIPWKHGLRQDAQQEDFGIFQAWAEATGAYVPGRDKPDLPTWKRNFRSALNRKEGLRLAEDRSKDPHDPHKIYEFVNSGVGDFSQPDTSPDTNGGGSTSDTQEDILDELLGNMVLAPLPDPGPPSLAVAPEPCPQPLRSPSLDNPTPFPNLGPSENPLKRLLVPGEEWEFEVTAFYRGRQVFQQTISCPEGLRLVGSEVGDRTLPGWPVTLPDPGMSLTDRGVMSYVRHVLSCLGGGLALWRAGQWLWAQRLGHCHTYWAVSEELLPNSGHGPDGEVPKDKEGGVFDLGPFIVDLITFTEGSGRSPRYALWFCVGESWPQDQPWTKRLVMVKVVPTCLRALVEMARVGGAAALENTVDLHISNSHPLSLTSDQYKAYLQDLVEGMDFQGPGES

[3] = molecular target: HA-tagged STING Y245E (human) (UniProt Q86WV6)
[4] = molecular target: HA-tagged STING Y314E (human) (UniProt Q86WV6)

- binding [1]: binds
B1: Myc-tagged TBK1, Q9UHD2 1-729 (enzyme)
chain: MQSTSNHLWLLSDILGQGATANVFRGRHKKTGDLFAIKVFNNISFLRPVDVQMREFEVLKKLNHKNIVKLFAIEEETTTRHKVLIMEFCPCGSLYTVLEEPSNAYGLPESEFLIVLRDVVGGMNHLRENGIVHRDIKPGNIMRVIGEDGQSVYKLTDFGAARELEDDEQFVSLYGTEEYLHPDMYERAVLRKDHQKKYGATVDLWSIGVTFYHAATGSLPFRPFEGPRRNKEVMYKIITGKPSGAISGVQKAENGPIDWSGDMPVSCSLSRGLQVLLTPVLANILEADQEKCWGFDQFFAETSDILHRMVIHVFSLQQMTAHKIYIHSYNTATIFHELVYKQTKIISSNQELIYEGRRLVLEPGRLAQHFPKTTEENPIFVVSREPLNTIGLIYEKISLPKVHPRYDLDGDASMAKAITGVVCYACRIASTLLLYQELMRKGIRWLIELIKDDYNETVHKKTEVVITLDFCIRNIEKTVKVYEKLMKINLEAAELGEISDIHTKLLRLSSSQGTIETSLQDIDSRLSPGGSLADAWAHQEGTHPKDRNVEKLQVLLNCMTEIYYQFKKDKAERRLAYNEEQIHKFDKQKLYYHATKAMTHFTDECVKKYEAFLNKSEEWIRKMLHLRKQLLSLTNQCFDIEEEVSKYQEYTNELQETLPQKMFTASSGIKHTMTPIYPSSNTLVEMTLGMKKLKEEMEGVVKELAENNHILERFGSLTMDGGLRNVDCL

- binding [2]: binds
B2: HA-tagged TBK1 (enzyme, UniProt Q9UHD2 1-729)
chain: B1 chain

- binding [3]: binds
- binding [4]: binds
B3: Myc-tagged TBK1 (enzyme, UniProt Q9UHD2 1-729)
chain: B1 chain
